Paper doi:10.1101/438911
Results are given in words; binding and its absence hold for the method and conditions named. In cells and extracts the contact can be indirect. These calls come from enrichment with a bait or labelling near it, and not all partners need be listed.

Target: Piwi4-FLAG (C-terminal FLAG tagged Piwi4) (Aedes aegypti)
Assay: affinity purification with mass spectrometry

B1: Argonaute-2 (Ago2) (protein, UniProt C5J0H4 1-992)
chain: MILNARYLYIPCRQKQQQQQQQPQQQQQHQQKQQSQQQQQQQQQQQRSKEQGSQQQQRPQQQAQQQQPSQQQQQSQKQQHPQQQQQQRPQKQQQQFQQDQRPQQQQQQLQKQQQQQGQSWRPQSHDPSPASGSHSHSSSPSHAAALERVEEDFSKIKIDKQKIHSSALLPVLMRPNAHGTRGRAIKVEVNYIQLLLERLIPTAYHYDVDIQPAASRKWQRLAFSEFTKQMFPNHGFAFDGHKNAYAARRLQADVYEQEVKVRDEGRERRFKVAMKEAAVLDMTCLKTYMNNGSTLDKPMSAIQCLDIVLRTAYENNPRFIKFKKSIYVKPDRPDDIGSNHELWYGLFQSALLGARPFLNIDVSHKAFPTGGPVLRILVDMNRGQVPDRVTDWMSRDLHDFLKGMELSYTGPDGVSKLFKYNSIKSPANQQKFKLENGTEMTIDQYFRSKNKQLRYPSLPVLHVGSLVRNVMLPIELCSIPPGQALNKKHPDQCTQFIIRKSATDTATRKRKIMDLFNQIGYNNAPTIKEFGVSVGNNFETVDGRILDPPELSYRNDRRVKPMRGVWRADNMNFIIPSTEITRRELSWTILNLDGRTRPDAIDEFGRNIYQMSLKQGVQLQQFSMKNNFYEPRDMRFAVKDLDNIFDELKKRKIDLVFVVIPSPGRDGDVYAKVKQKAELCVGLLTQCIKSFTLDKKRGDMSTISNIWLKINAKTNGSNHVLAKNFKPPIARKTVMYVGADVTHPSPEQTNIPSVVGVAASYDLEGFRYNCCYRLQGPKDEMIRDLQNIVIKQLRQFKQTNQSLPELIMYYRDGVSEGQFQEVLTIELRAMQAAAASVQQGYKPNITFIVVQKRHHARFFPTANCPTEGRNNNVQPGTIVDRYITAPNQYQFFLVSHAAVQGVAKPTKYCVLYDDENCNPDQLQALTYYLCHMFTRCNRAVSYPAPTYYAHLAAYRGRVYIKDRPLNMNNLTKEYERMQIRTEIQDGHPMFFV
  binding: binds
